Part of at least one peptide drawing is inferred or uncertain, most often the ends. Peptide text beside a SMILES is read from it.
Tested on: soft tissue lesion
Experiment: Soft tissue lesion healing against streptozotocin-induced diabetes mellitus
Type: in vivo, Wistar rats
[1] = experimental group n = 15, week 9
[2] = experimental group n = 15, week 11

Compound: N[C@@H](CCC(=O)O)C(=O)N[C@@H](Cc1c[nH]c2ccccc12)C(=O)O [L-Glu-L-Trp, L-glutamic-L-tryptophan acid] (H-Glu-Trp-OH; N-terminus and C-terminus assumed)
- Number of animals with signs of beginning of marginal epithelization (experimental group n = 15, week 5 (before dipeptide)): 0
- Animals with signs of beginning of marginal epithelization, percent [1]: (40.0%)
- Number of animals with signs of beginning of marginal epithelization [1]: 6
- Animals with signs of beginning of marginal epithelization, percent [2]: (13.3%)
- Number of animals with signs of beginning of marginal epithelization [2]: 2

Reference: patent publication US11083770B2, “Medical preparation and method for enhancing tissue oxygenation in case of diabetic foot” (priority 2017, dated 2021)
